From PMC5634466
For at least one entry, the source does not settle the construct or the ends of the probe. Where cells or extracts were used, other partners may take part. Protein sequences can lack the tags named with them.

How the values were obtained:
[1] = target: T1, NRF-1 (nuclear respiratory factor 1, endogenous) (UniProt Q16656); test: EMSA supershift; conditions: HEK293T nuclear extract, anti-NRF-1 supershift; DIG Gel Shift kit 2nd generation (Roche), manufacturer's instructions; HEK293T nuclear extracts; 250-fold unlabeled oligo for competition; protein in an extract; label: DIG (DIG Gel Shift kit)
T1 sequence (looked up, limits assumed): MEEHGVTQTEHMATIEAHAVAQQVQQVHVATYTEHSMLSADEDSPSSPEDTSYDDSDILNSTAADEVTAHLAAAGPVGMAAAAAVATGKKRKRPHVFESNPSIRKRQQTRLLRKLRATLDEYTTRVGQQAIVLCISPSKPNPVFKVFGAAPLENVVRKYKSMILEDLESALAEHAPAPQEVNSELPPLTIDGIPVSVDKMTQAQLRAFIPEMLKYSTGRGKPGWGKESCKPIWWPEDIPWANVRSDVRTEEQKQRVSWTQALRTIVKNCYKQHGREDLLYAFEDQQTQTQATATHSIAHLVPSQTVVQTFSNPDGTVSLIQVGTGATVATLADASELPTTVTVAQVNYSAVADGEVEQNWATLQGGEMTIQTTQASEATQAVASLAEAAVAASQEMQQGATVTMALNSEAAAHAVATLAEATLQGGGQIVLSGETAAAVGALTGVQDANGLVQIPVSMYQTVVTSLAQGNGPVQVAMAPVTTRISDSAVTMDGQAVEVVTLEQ

[2] = target: T1, NRF-1 (nuclear respiratory factor 1, endogenous); test: EMSA; conditions: HBZ-deltaCD overexpressed (does not bind NRF-1), no inhibition; DIG Gel Shift kit 2nd generation (Roche), manufacturer's instructions; HEK293T nuclear extracts; 250-fold unlabeled oligo for competition; protein in an extract; label: DIG (DIG Gel Shift kit)

“ACTGCGCGCATGCGCGGCGG (double strand) [TDP1 promoter NRF-1 site EMSA probe]”: binds [1]; binds [2].
